The list is a part of this screen's results and no random one: its compounds were picked by chemical class. Not every dose and run of a compound is shown. T/C is the treated group as % of the vehicle group. Some doses have a count of surviving animals in place of a T/C: the source holds a T/C of zero for them, seemingly a mark for toxic or unscored doses. Some survivor counts are full or nearly so, which does not show that the dose was tolerated: survival well below the control is almost never listed, so the zero probably covers shortened survival too. Survivors were counted at the toxicity check, usually on the fifth day, unless a day is given; later deaths do not show. Schedules are NCI's codes, taken here to give the interval after Q, in days (D) or hours (H), and the number of doses after X. Some structures stand for samples that the source files as different forms (salt, stereo form or complex); doses refer to the form tested. Some entries were tested several times; the values are given in rising order. Signs of the kind (2×) stand for listed records that agree. Where survival is the endpoint, the PubChem record calls one and a half times the control and up active, and a quarter to a half above the control has no call in these data; cut-offs in other NCI protocols can differ. Some T/C values are marked as having no survivor count here; that says nothing about deaths at the dose. Some T/C values carry the count of animals alive at the toxicity check (mostly the fifth day); where neither a count nor a note follows, no animal had died by that day.

The test deals with P388 leukemia ip, CD2F1 mice, survival T/C. Description: NCI In Vivo Anticancer Drug Screen. Data for tumor model P388 Leukemia (intraperitoneal) in CD2F1 (CDF1) mice. The following applies: T/C endpoint: median survival time, higher T/C = longer survival.
The mark [1] stands for this setting: dose: 25.0 mg/kg/injection, schedule: Q01DX001 (ip), vehicle: Klucel (hydroxypropylcellulose) (HPC).
Setting [2] is: dose: 50.0 mg/kg/injection, schedule: Q01DX001 (ip), vehicle: Klucel (hydroxypropylcellulose) (HPC).
Where [3] appears, read: dose: 100.0 mg/kg/injection, schedule: Q01DX009 (ip), vehicle: saline.
Setting [4] is: dose: 100.0 mg/kg/injection, schedule: Q01DX009 (ip), vehicle: Klucel (hydroxypropylcellulose) (HPC).
[5] abbreviates: dose: 200.0 mg/kg/injection, schedule: Q01DX009 (ip), vehicle: Klucel (hydroxypropylcellulose) (HPC).
Where [6] appears, read: dose: 50.0 mg/kg/injection, schedule: Q01DX009 (ip), vehicle: Klucel (hydroxypropylcellulose) (HPC).
[7] abbreviates: dose: 100.0 mg/kg/injection, schedule: Q01DX001 (ip), vehicle: Klucel (hydroxypropylcellulose) (HPC).

Take `CN=C(NP(=O)(Oc1ccccc1)Oc1ccccc1)Oc1ccccc1`: the T/C runs as follows: (dose: 12.5 mg/kg/injection, schedule: Q01DX009 (ip), vehicle: distilled water + Tween-80) 105 % of control; (dose: 25.0 mg/kg/injection, schedule: Q01DX009 (ip), vehicle: distilled water + Tween-80) 99 % of control; (dose: 50.0 mg/kg/injection, schedule: Q01DX009 (ip), vehicle: distilled water + Tween-80) 113 % of control; (dose: 100.0 mg/kg/injection, schedule: Q01DX009 (ip), vehicle: distilled water + Tween-80) 93 % of control.

Regarding `S=P(N(CCCl)CCCl)(n1ccnc1)n1ccnc1`, the T/C is, setting by setting: (dose: 12.5 mg/kg/injection, schedule: Q01DX001 (ip), vehicle: Klucel (hydroxypropylcellulose) (HPC)) 99 % of control; under setting [1], 104 % of control; under setting [2], 101 % of control.

For the compound `CCCCNC(=NC)NP(=O)(NCCCC)NCCCC`, the T/C was 107 % of control (dose: 6.25 mg/kg/injection, schedule: Q04DX003 (ip), vehicle: Klucel (hydroxypropylcellulose) (HPC)); 97 % of control (dose: 12.5 mg/kg/injection, schedule: Q04DX003 (ip), vehicle: Klucel (hydroxypropylcellulose) (HPC)); 108 % of control (dose: 25.0 mg/kg/injection, schedule: Q04DX003 (ip), vehicle: Klucel (hydroxypropylcellulose) (HPC)). The survivor count by setting is: (dose: 100.0 mg/kg/injection, schedule: Q04DX003 (ip), vehicle: Klucel (hydroxypropylcellulose) (HPC)) 3 of 6; (dose: 200.0 mg/kg/injection, schedule: Q04DX003 (ip), vehicle: Klucel (hydroxypropylcellulose) (HPC)) 2 of 6; (dose: 400.0 mg/kg/injection, schedule: Q04DX003 (ip), vehicle: Klucel (hydroxypropylcellulose) (HPC)) 0 of 6.

Consider `O=[N+]([O-])C(F)(COCOCC(F)([N+](=O)[O-])[N+](=O)[O-])[N+](=O)[O-]`, for which the T/C by setting is: under setting [3], 106 % of control; (dose: 200.0 mg/kg/injection, schedule: Q01DX009 (ip), vehicle: saline) 111 % of control; (dose: 400.0 mg/kg/injection, schedule: Q01DX009 (ip), vehicle: saline) 116 % of control.

In the case of `CC(C)OP(C)(O)=S` (stereo not drawn), the T/C reads like this: (dose: 50.0 mg/kg/injection, schedule: Q01DX005 (ip), vehicle: saline) 92 % of control; (dose: 100.0 mg/kg/injection, schedule: Q01DX005 (ip), vehicle: saline) 94 % of control [4 of 6 alive]. Also, the survivor count (dose: 200.0 mg/kg/injection, schedule: Q01DX005 (ip), vehicle: saline) is recorded as 1 of 6.

Turning to `CCOP(=O)(O)CC.[V]`, the T/C is 90 % of control [survivor count not shown] under setting [4] and 94 % of control [survivor count not shown] under setting [5].

Consider `NCCCl`, for which the T/C by setting is: (dose: 50.0 mg/kg/injection, schedule: Q01DX001 (ip), vehicle: saline) 97 % of control; (dose: 100.0 mg/kg/injection, schedule: Q01DX001 (ip), vehicle: saline) 108 % of control; (dose: 200.0 mg/kg/injection, schedule: Q01DX001 (ip), vehicle: saline) 100 % of control; (dose: 400.0 mg/kg/injection, schedule: Q01DX001 (ip), vehicle: saline) 100 % of control.

For `C[As](C)SC(C)(C)C(N)C(=O)O` (stereo not drawn), the T/C by setting is: (dose: 12.5 mg/kg/injection, schedule: Q01DX009 (ip), vehicle: Klucel (hydroxypropylcellulose) (HPC)) 104, 107, 113, 117 % of control; (dose: 25.0 mg/kg/injection, schedule: Q01DX009 (ip), vehicle: Klucel (hydroxypropylcellulose) (HPC)) 104, 108, 117, 122 % of control; under setting [6], 110 and 128 % of control. Also, the survivor count is 3 of 6, 4 of 6 (2×), 6 of 6 under setting [6]; 0 of 6 (2×) and 1 of 6 under setting [4]; 0 of 6 (2×) under setting [5].

With `COc1ccc(O)c2c(=O)c3c(OC)cc4c(c3oc12)[C@@H]1C=CO[C@@H]1O4`, the T/C (dose: 3.13 mg/kg/injection, schedule: Q01DX009 (ip), vehicle: saline) is 151 % of control; the T/C (dose: 6.25 mg/kg/injection, schedule: Q01DX009 (ip), vehicle: saline) was 151 % of control; the T/C (dose: 12.5 mg/kg/injection, schedule: Q01DX009 (ip), vehicle: saline) is 161 % of control; the T/C (dose: 12.5 mg/kg/injection, schedule: Q04DX003 (ip), vehicle: saline with Tween-80) is 116 % of control; the T/C (dose: 25.0 mg/kg/injection, schedule: Q01DX009 (ip), vehicle: saline) was 180 % of control; the T/C (dose: 25.0 mg/kg/injection, schedule: Q04DX003 (ip), vehicle: saline with Tween-80) was 165 % of control. For the same compound, the T/C (dose: 50.0 mg/kg/injection, schedule: Q01DX009 (ip), vehicle: saline) is 202 % of control; the T/C (dose: 50.0 mg/kg/injection, schedule: Q04DX003 (ip), vehicle: saline with Tween-80) was 202 % of control; the T/C under setting [3] is 94 % of control; the T/C (dose: 100.0 mg/kg/injection, schedule: Q04DX003 (ip), vehicle: saline with Tween-80) was 145 % of control; the T/C (dose: 200.0 mg/kg/injection, schedule: Q04DX003 (ip), vehicle: saline with Tween-80) is 90 % of control.

Take `COC(=O)C(CCl)(NC(C)=O)SC(C)=O` (stereo not drawn): the T/C under setting [1] is 105 % of control, the T/C under setting [2] was 99 % of control and the T/C under setting [7] is 91 % of control. The survivor count under setting [7] is given as 3 of 6; the survivor count (dose: 200.0 mg/kg/injection, schedule: Q01DX001 (ip), vehicle: Klucel (hydroxypropylcellulose) (HPC)) is recorded as 2 of 6; the survivor count (dose: 400.0 mg/kg/injection, schedule: Q01DX001 (ip), vehicle: Klucel (hydroxypropylcellulose) (HPC)) was 0 of 6.

These data come from PubChem BioAssay AID330 (DTP/NCI, 2004).
